Source: the supplement of paper PMC4604168 (melanoma cell lines)
Some of the results follow. Repeats are few or missing, and single values can be far off.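 Imaging used 1,536-well plates; nuclei positive for cleaved PARP by antibody were divided by total DNA-stained nuclei to yield the apoptosis fraction. Doses for screening kept most cells viable, and cell lines differ markedly in resting and induced cleaved-PARP levels.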

Assays:
Assay in all cases: cleaved PARP positive nuclei fraction relative to DMSO control; melanoma cells; higher = more apoptosis
Conditions in all cases: library dose: low library concentration; 72 h
501Mel = system: 501Mel
A101D = system: A101D
A2058 = system: A2058
A375 = system: A375
C32 = system: C32
CBRC008 = system: CBRC008 (line from a melanoma biopsy)
CBRC013 = system: CBRC013 (line from a melanoma biopsy)
CBRC014 = system: CBRC014 (line from a melanoma biopsy)
CBRC016 = system: CBRC016 (line from a melanoma biopsy)
CBRC017 = system: CBRC017 (line from a melanoma biopsy)
COLO792 = system: COLO792
COLO800 = system: COLO800
COLO829 = system: COLO829
G361 = system: G361
IPC-298 = system: IPC-298
IST-MEL1 = system: IST-MEL1
LB2518-MEL = system: LB2518-MEL
LOXIMVI = system: LOXIMVI
MEL-HO = system: MEL-HO

| Compound | cleaved PARP positive nuclei fraction (501Mel) [%] | cleaved PARP positive nuclei fraction (A101D) [%] | cleaved PARP positive nuclei fraction (A2058) [%] | cleaved PARP positive nuclei fraction (A375) [%] | cleaved PARP positive nuclei fraction (C32) [%] | cleaved PARP positive nuclei fraction (CBRC008) [%] | cleaved PARP positive nuclei fraction (CBRC013) [%] | cleaved PARP positive nuclei fraction (CBRC014) [%] | cleaved PARP positive nuclei fraction (CBRC016) [%] | cleaved PARP positive nuclei fraction (CBRC017) [%] | cleaved PARP positive nuclei fraction (COLO792) [%] | cleaved PARP positive nuclei fraction (COLO800) [%] | cleaved PARP positive nuclei fraction (COLO829) [%] | cleaved PARP positive nuclei fraction (G361) [%] | cleaved PARP positive nuclei fraction (IPC-298) [%] | cleaved PARP positive nuclei fraction (IST-MEL1) [%] | cleaved PARP positive nuclei fraction (LB2518-MEL) [%] | cleaved PARP positive nuclei fraction (LOXIMVI) [%] | cleaved PARP positive nuclei fraction (MEL-HO) [%] |
| --- | --- | --- | --- | --- | --- | --- | --- | --- | --- | --- | --- | --- | --- | --- | --- | --- | --- | --- | --- |
| CCCS(=O)(=O)Nc1ccc(F)c(C(=O)c2c[nH]c3ncc(Cl)cc23)c1F + CC1(C)NC(=O)N(c2ccc([N+](=O)[O-])c(C(F)(F)F)c2)C1=O [nilutamide] (first compound 0.08 µM, partner dose 1 µM) | 79.8 | 89.7 | 112 | 204 | 81.5 | 143 | 61.3 | 88.2 | 110 | 106 | 102 | 97.2 | 185 | 174 | 61.3 | 298 | 43.6 | 57.8 | 225 |
| C=C(c1ccc(C(=O)O)cc1)c1cc2c(cc1C)C(C)(C)CCC2(C)C [Bexarotene] + CN(NC(=O)CC(=O)NN(C)C(=S)c1ccccc1)C(=S)c1ccccc1 [STA4783] (first compound 2 µM, partner dose 0.006 µM) | 893 | 98.6 | 142 | 6110 | 245 | 1850 | 104 | 258 | 226 | 515 | 230 | 205 | 175 | 38 | 151 | 96.1 | 248 | 24.1 | 225 |
| Cn1c(=O)n(-c2ccc(C(C)(C)C#N)cc2)c2c3cc(-c4cnc5ccccc5c4)ccc3ncc21 + O=C(Nc1cccc(Cl)c1)Nc1ncc(CCNc2ncnc3ccsc23)s1 [SNS314] (first compound 0.004 µM, partner dose 0.0008 µM) | 174 | 196 | 66.2 | 143 | 113 | 85.1 | 99.5 | 73.8 | 35.3 | 207 | 156 | 169 | 110 | 134 | 185 | 108 | 154 | 28.2 | 241 |
| C=C(c1ccc(C(=O)O)cc1)c1cc2c(cc1C)C(C)(C)CCC2(C)C [Bexarotene] + CN(C)S(=O)(=O)c1ccc2c(c1)/C(=C/c1cc3c([nH]1)CCCC3)C(=O)N2 [SU6656] (first compound 2 µM, partner dose 0.4 µM) | 86.1 | 80.5 | 46.7 | 40.1 | 28.7 | 216 | 163 | 113 | 67 | 125 | 76.6 | 137 | 170 | 57 | 21.4 | 209 | 80.5 | 33.4 | 294 |
| Nc1nc(F)nc2c1ncn2[C@@H]1O[C@H](CO)[C@@H](O)[C@@H]1O [fludarabine] + NCC(=O)Nc1ccc(-n2nc(C(F)(F)F)cc2-c2ccc3c(ccc4ccccc43)c2)cc1 [OSU03012] (first compound 0.2 µM, partner dose 1 µM) | 1800 | 22.1 | 133 | 15400 | 150 | 96.2 | 319 | 86.2 | 236 | 99.5 | 86.3 | 108 | 79.2 | 32.1 | 27.4 | 222 | 106 | 78.1 | 32.4 |
| CN1CCN(c2ccc3nc(-c4c(N)c5c(F)cccc5[nH]c4=O)[nH]c3c2)CC1 [Dovitinib] + O=C(O)c1ccc(-c2c[nH]c3ncc(-c4ccccc4)cc23)cc1C1CCCC1 [GSK650394] (first compound 0.1 µM, partner dose 0.16 µM) | 198 | 107 | 139 | 179 | 147 | 166 | 134 | 110 | 168 | 179 | 101 | 145 | 219 | 120 | 99.7 | 96.6 | 97.9 | 197 | 74.6 |
| CO[C@H]1C[C@@H]2CC[C@@H](C)[C@@](O)(O2)C(=O)C(=O)N2CCCC[C@H]2C(=O)O[C@H]([C@H](C)C[C@@H]2CC[C@@H](OCCO)[C@H](OC)C2)CC(=O)[C@H](C)/C=C(\C)[C@@H](O)[C@@H](OC)C(=O)[C@H](C)C[C@H](C)/C=C/C=C/C=C/1C [everolimus] + CN(NC(=O)CC(=O)NN(C)C(=S)c1ccccc1)C(=S)c1ccccc1 [STA4783] (first compound 0.02 µM, partner dose 0.006 µM) | 330 | 429 | 184 | 1760 | 178 | 1800 | 371 | 411 | 203 | 137 | 169 | 611 | 240 | 68.9 | 123 | 142 | 152 | 36 | 184 |
| Cc1cc(Nc2cc(N3CCN(C)CC3)nc(/C=C/c3ccccc3)n2)n[nH]1 + NC(=O)Nc1cc(-c2cccc(F)c2)sc1C(=O)N[C@H]1CCCNC1 [AZD7762] (first compound 0.04 µM, partner dose 0.02 µM) | 105 | 55.4 | 131 | 70.2 | 113 | 54.6 | 127 | 72 | 45.9 | 121 | 112 | 122 | 118 | 58.2 | 142 | 126 | 80.9 | 51.1 | 125 |
| Cc1cc(Nc2cc(N3CCN(C)CC3)nc(/C=C/c3ccccc3)n2)n[nH]1 + C=CCn1c(=O)c2cnc(Nc3ccc(N4CCN(C)CC4)cc3)nc2n1-c1cccc(C(C)(C)O)n1 [MK1775] (first compound 0.04 µM, partner dose 0.02 µM) | 74.7 | 97.8 | 165 | 189 | 114 | 65.9 | 110 | 114 | 110 | 68.4 | 155 | 162 | 110 | 98.1 | 60.9 | 32.1 | 61.9 | 70.4 | 153 |
| Nc1nc(F)nc2c1ncn2[C@@H]1O[C@H](CO)[C@@H](O)[C@@H]1O [fludarabine] + CN(NC(=O)CC(=O)NN(C)C(=S)c1ccccc1)C(=S)c1ccccc1 [STA4783] (first compound 0.2 µM, partner dose 0.006 µM) | 2260 | 44.9 | 197 | 17700 | 109 | 1520 | 429 | 657 | 170 | 195 | 267 | 122 | 147 | 67.7 | 102 | 131 | 136 | 86.1 | 144 |
| CCCS(=O)(=O)Nc1ccc(F)c(C(=O)c2c[nH]c3ncc(Cl)cc23)c1F + O=C(O)c1ccc(-c2c[nH]c3ncc(-c4ccccc4)cc23)cc1C1CCCC1 [GSK650394] (first compound 0.08 µM, partner dose 0.16 µM) | 88.6 | 99.9 | 78.3 | 145 | 83.5 | 516 | 80.7 | 146 | 41.7 | 144 | 169 | 63.6 | 133 | 140 | 96.5 | 167 | 175 | 349 | 41.5 |
| CNC(=O)c1cc(Oc2ccc(NC(=O)Nc3ccc(Cl)c(C(F)(F)F)c3)cc2)ccn1 [sorafenib] + OCCn1cc(-c2cnc3nnn(Cc4ccc5ncccc5c4)c3n2)cn1 [PF04217903] (first compound 0.4 µM, partner dose 1 µM) | 96.2 | 76.8 | 112 | 173 | 77.7 | 146 | 101 | 99.6 | 122 | 73 | 127 | 74.2 | 103 | 42 | 95.9 | 67.1 | 79.8 | 28.4 | 138 |
| Nc1ncn([C@H]2C[C@H](O)[C@@H](CO)O2)c(=O)n1 [decitabine] + CC1(C)NC(=O)N(c2ccc([N+](=O)[O-])c(C(F)(F)F)c2)C1=O [nilutamide] (first compound 0.1 µM, partner dose 1 µM) | 81.8 | 46.6 | 111 | 22.2 | 94.2 | 63.9 | 112 | 88.5 | 161 | 55.9 | 136 | 126 | 240 | 111 | 106 | 110 | 99.5 | 40.3 | 74.4 |
| CCCS(=O)(=O)Nc1ccc(F)c(C(=O)c2c[nH]c3ncc(Cl)cc23)c1F + Cc1ccc(NC(=O)c2cccc(N(C)C)c2)cc1NC(=O)c1ccc(O)cc1 [ZM336372] (first compound 0.08 µM, partner dose 2 µM) | 114 | 43.9 | 84.7 | 91.9 | 58.4 | 114 | 84.9 | 206 | 109 | 240 | 89.4 | 61.6 | 106 | 151 | 108 | 103 | 157 | 63.4 | 162 |
| CNC(=O)c1cc(Oc2ccc(NC(=O)Nc3ccc(Cl)c(C(F)(F)F)c3)cc2)ccn1 [sorafenib] + C=CCn1c(=O)c2cnc(Nc3ccc(N4CCN(C)CC4)cc3)nc2n1-c1cccc(C(C)(C)O)n1 [MK1775] (first compound 0.4 µM, partner dose 0.02 µM) | 95 | 144 | 19.6 | 23.7 | 111 | 25.4 | 102 | 113 | 166 | 156 | 73.9 | 47.7 | 159 | 166 | 57.9 | 79.2 | 118 | 59.8 | 47.5 |
| Nc1ccn([C@@H]2O[C@H](CO)[C@@H](O)C2(F)F)c(=O)n1 [gemcitabine] + CO[C@@H]1[C@H](N(C)C(=O)c2ccccc2)C[C@H]2O[C@]1(C)n1c3ccccc3c3c4c(c5c6ccccc6n2c5c31)C(=O)NC4 [Midostaurin] (first compound 0.0004 µM, partner dose 0.08 µM) | 74 | 83.8 | 83.8 | 55.2 | 35.4 | 42.4 | 126 | 125 | 484 | 116 | 93.4 | 71.2 | 123 | 143 | 26.5 | 90.9 | 291 | 77 | 32.8 |

Only cleaved PARP positive nuclei fraction (COLO792) [%] and cleaved PARP positive nuclei fraction (501Mel) [%], for some of the entries so far:
Compound,cleaved PARP positive nuclei fraction (COLO792) [%],cleaved PARP positive nuclei fraction (501Mel) [%]
"CNC(=O)c1cc(Oc2ccc(NC(=O)Nc3ccc(Cl)c(C(F)(F)F)c3)cc2)ccn1 [sorafenib] + OCCn1cc(-c2cnc3nnn(Cc4ccc5ncccc5c4)c3n2)cn1 [PF04217903] (first compound 0.4 µM, partner dose 1 µM)",127,96.2
"Nc1ncn([C@H]2C[C@H](O)[C@@H](CO)O2)c(=O)n1 [decitabine] + CC1(C)NC(=O)N(c2ccc([N+](=O)[O-])c(C(F)(F)F)c2)C1=O [nilutamide] (first compound 0.1 µM, partner dose 1 µM)",136,81.8
